Source: PubChem BioAssay AID1159506 (NCATS, 2015).

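Genome-wide siRNA knockdown in TC32 Ewing sarcoma cells, comparing luciferase light from an NR0B1-promoter reporter with a CMV-promoter reporter 48 hours after transfection. Each siRNA was applied at 20 nM. A z-score of the log NR0B1-over-CMV signal, less the median of siRNAs with the same seed; more negative means a stronger specific loss of the NR0B1 reporter.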

This is part of the screen; most of the strongest results are not listed here. Sequences are the guide (antisense) strand, without overhang.

siRNA,target gene,seed-corrected z-score
UCAAGUACAAGAGAUAAGC,TRAM1L1,-0.1935
ACAGGUAGAAUUCCGUCUC,FGF18,0.5998
UAAAGAUCUUCAGUUACUG,LRRC19,-0.4601
UUCAUGGUGAGAUCGUUCG,LOC729083,0.442
UCACGAUGAACAAUGUUCC,SIK3,-0.2733
ACUGAUCUCAACAUAUUCC,TTC23,-0.62
AUAGUGAUCUUCCUUGUCC,PEG10,0.3878
ACUGUGAACGGGUAGAGUC,DCANP1,0.04059
UUUCAAUCCAUGCAAGCCG,COL4A4,0.7575
UUGCAGUAAACGGUAUUCC,ERCC5,-1.375
UCCUUGACAAUGGUCUUCU,EXOC7,-0.003041
UUACGAAGAACCAAUAUUC,LRGUK,-0.214
UUUGCACUCUCUGCAUUUG,MT1IP,-0.2299
UCUUUGUCGUCUGACUACC,PCNP,-0.007975
UGAAUUUCCGCUUUUUCCU,PGBD5,-0.9569
UCUCGUGUAAUGGUCAUAG,TMEM2,0.9666
UCUGUGAUCCGGUACAGUC,VAV1,0.001641
AAUGGUACGUCUUCUCUCC,YIPF1,2.263
UCCUGAUAUAGUCAUGUAC,ANXA5,0.8657
UCAUCUAUUACAUCAGCAG,CFAP44,-0.09256
AGAAUACUUAUUCAGCUCC,STXBP2,1.18
UCUCGAUCCACGCAGACCU,CLDN25,-0.1586
UUUAUUAUAGGGACUUAGU,UPK2,0.3382
AUUGUUGUUGGAACAGUUG,HAVCR1,-0.8292
UCAGUUGCAAUGGUAGAGG,SLC22A7,0.2295
UUUGUCUAAAUAGAGGAUG,BMP10,0.3105
AUCAUGUUGAGUUCAUCUC,CATSPER4,-0.03647
UUCGGAUUACCAGCACUGC,PUS7L,0.009715
UUUGGUCAUCUGGUAAUCA,ADA,-0.1544
UCUUGAUUAGCAUCCAGGC,S100A12,0.02042
UCAGUAUCCAAUCCAUCCC,ATAD1,-0.3992
UCUUCUUUCAUCCCUGUUC,ZC3H11A,-0.1137
UUAAAUCUCCUCCAAUUCU,C3orf35,-0.4044
UAGAUUAAAAGGUCUUUCU,SNTB1,0.3479
UAUGUACCACGUAUGAUAC,TRMT112P6,0.7284
UUGGUCAUGACGAAGAGGG,P2RX4,-1.569
CUUCUUAAGCCCGCUCUCC,HIST2H3A,1.02
UUUUGUGCUGGAUUGAGGG,LILRA4,0.001839
AAUGGUCUGACCACAGAGG,ATP5O,-0.7956
UAAGCAAAAGAGACGAGGA,KLHL33,0.2328
AACUGUAUAGGCAACUUGG,SLC22A2,0.8056
CACCUCGUACAGUUUGUCC,FAM86B2,-0.04079
UCAUUUCGGAUGAUGAUGC,HECTD2,0.7608
UAAUGUCCGAGGUAUUUAU,EIF1AX,-0.8372
UAGUCAACCAUAGAUCUUC,GLUD1,-0.9439
UAAAGAGCAGUUCCCGUCC,MYLK,0.3339
AUAGUCAACAUAGCAUACC,TDRD7,-1.764
UGGUAUAUCUCUUUGGUCC,LDB1,0.9538
AAUCUUCUCACAUAUGUGC,RNF25,-1.981
UCUUGGAUGAUGUUGUGGG,CLDN4,-0.2736
UCCUGUAUUAAGUCUCUGG,ZNF790,0.4468
UUGUGAGUCAUGAGGCAGC,LY6G6F,-0.002761
UGUACGAAAAACCAAGUCC,MED14,-0.7909
ACUUGUACUAGAAUCCACC,CASC3,1.504
UUCAAUCCUACUGAUCUGG,OSMR,0.6503
UACAUGGAAAGGGUUUAGC,DNAJC14,0.5971
AAGGUGUUCACUGGUUUGC,RNASE1,-0.3901
AUGCGUUUUUGUACGAUGC,SPON1,-0.1671
UAACACUCCACCUUAAUGG,CPNE3,-0.004783
AACUGAUUUCCAGAUAGCC,GTF2IRD2,0.4831
AGUAUGUCAACAUCUCGCC,ADCY1,-0.7406
UAUUGUUCCAAGUCCACAC,THUMPD2,0.004095
UAUCCGAUGUAAUAUGACC,TMEM173,0.427
UGUGCUUAAACAAUCUGUG,FAM49B,-0.1838
UUCUGCCCAAGAGAAGUUC,BTG1,-0.14
UAUUUUCCCUCGGGUAACU,RPL36AL,0.4136